# Laboratory results as given in patent US11672870B2, “Transduction” (The University of Nottingham, priority 2013, dated 2023).
# Some results were stated once for a whole list of compounds, not compound by compound.
# Assays:
# [1] = test system: NIH3t3, C2C12 and mouse embryonic fibroblasts; assay: Fluorescence delivery assay in extensively tested cell-lines; type: cell-based
# [2] = test system: mESCs, HESCs and HiPSCs; assay: Fluorescence delivery assay (flow cytometry) in pluripotent stem cells; type: cell-based
substance,measurement,setting,value
8R: protein transduction domain RRRRRRRR (SEQ ID NO: 19) (Transduction domain),delivery over control,[1],5-50 fold
same,transduction of cargo over control,[2],1-3 fold
